From the supplement of paper PMC10849652
The other results are listed elsewhere or left out.

By UniProt entry, the sequences of proteins in these tests, tags left out. Where a name states a change or a piece, a line headed by the entry shows the natural chain unless it says otherwise.
UniProt Q92611: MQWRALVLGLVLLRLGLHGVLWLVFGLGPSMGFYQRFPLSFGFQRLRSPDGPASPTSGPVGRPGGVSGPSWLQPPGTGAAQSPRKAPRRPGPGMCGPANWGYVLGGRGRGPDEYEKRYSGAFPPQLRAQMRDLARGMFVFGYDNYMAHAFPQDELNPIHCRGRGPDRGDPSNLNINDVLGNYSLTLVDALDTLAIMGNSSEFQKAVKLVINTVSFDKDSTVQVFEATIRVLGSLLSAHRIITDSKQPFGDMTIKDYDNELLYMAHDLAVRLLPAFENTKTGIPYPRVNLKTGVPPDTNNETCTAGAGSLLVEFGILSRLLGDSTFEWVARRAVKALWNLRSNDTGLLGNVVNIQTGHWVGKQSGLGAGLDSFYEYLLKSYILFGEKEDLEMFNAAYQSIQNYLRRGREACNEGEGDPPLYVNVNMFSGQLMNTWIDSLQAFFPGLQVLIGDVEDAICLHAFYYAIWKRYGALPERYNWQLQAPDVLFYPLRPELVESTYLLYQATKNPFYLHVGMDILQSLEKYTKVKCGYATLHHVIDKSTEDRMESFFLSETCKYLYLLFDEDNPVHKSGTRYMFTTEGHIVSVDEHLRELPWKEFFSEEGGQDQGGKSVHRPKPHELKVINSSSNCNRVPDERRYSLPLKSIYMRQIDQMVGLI
UniProt Q15125: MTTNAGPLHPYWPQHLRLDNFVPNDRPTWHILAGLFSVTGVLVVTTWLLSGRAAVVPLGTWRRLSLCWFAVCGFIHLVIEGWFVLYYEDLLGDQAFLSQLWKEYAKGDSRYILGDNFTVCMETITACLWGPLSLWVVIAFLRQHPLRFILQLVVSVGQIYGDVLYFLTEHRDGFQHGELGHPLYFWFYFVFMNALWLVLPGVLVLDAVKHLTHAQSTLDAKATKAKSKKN
UniProt P63167, whole entry, looked up: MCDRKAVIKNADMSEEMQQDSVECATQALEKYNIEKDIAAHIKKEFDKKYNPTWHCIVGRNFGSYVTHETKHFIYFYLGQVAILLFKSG
UniProt Q7L8W6: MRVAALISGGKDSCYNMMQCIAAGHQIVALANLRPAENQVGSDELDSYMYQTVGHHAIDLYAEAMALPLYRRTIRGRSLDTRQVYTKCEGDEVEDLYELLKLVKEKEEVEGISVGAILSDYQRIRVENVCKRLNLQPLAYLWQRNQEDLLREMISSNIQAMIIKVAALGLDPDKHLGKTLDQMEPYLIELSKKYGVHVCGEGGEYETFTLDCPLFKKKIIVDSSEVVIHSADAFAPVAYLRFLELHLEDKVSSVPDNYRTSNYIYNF
UniProt Q8WXX5: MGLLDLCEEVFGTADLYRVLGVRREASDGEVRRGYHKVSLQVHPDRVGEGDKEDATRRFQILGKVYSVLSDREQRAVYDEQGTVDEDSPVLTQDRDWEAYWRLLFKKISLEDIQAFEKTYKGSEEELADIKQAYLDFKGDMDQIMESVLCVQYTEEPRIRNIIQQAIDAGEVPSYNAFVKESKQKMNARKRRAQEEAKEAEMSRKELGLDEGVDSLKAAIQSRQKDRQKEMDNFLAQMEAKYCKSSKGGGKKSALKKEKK
UniProt P42126: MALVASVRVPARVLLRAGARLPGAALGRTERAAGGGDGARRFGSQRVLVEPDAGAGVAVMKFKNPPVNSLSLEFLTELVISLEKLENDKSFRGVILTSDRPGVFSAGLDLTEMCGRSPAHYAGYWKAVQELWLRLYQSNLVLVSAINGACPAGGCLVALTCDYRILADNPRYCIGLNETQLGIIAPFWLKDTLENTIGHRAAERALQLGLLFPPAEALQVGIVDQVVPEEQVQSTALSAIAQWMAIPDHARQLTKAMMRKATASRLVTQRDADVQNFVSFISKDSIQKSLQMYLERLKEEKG
UniProt O00429, whole entry, looked up: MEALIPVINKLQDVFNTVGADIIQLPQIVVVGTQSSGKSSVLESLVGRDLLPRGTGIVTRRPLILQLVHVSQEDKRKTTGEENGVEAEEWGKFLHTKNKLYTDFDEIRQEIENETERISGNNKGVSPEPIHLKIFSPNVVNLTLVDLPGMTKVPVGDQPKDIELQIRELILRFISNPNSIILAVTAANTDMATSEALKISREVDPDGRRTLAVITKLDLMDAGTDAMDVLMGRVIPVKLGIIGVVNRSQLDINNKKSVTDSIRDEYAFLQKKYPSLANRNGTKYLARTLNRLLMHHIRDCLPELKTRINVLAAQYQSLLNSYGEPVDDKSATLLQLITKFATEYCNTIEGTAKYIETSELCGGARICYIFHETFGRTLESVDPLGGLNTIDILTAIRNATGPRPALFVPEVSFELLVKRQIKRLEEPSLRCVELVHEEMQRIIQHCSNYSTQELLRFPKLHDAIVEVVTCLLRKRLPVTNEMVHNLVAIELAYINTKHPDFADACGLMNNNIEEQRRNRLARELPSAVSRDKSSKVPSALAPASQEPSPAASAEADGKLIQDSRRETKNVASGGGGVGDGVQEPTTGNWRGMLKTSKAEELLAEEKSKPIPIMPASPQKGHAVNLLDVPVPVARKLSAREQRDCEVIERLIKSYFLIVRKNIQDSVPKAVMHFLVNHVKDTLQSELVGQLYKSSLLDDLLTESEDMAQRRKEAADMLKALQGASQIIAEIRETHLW
UniProt Q92785, whole entry, looked up: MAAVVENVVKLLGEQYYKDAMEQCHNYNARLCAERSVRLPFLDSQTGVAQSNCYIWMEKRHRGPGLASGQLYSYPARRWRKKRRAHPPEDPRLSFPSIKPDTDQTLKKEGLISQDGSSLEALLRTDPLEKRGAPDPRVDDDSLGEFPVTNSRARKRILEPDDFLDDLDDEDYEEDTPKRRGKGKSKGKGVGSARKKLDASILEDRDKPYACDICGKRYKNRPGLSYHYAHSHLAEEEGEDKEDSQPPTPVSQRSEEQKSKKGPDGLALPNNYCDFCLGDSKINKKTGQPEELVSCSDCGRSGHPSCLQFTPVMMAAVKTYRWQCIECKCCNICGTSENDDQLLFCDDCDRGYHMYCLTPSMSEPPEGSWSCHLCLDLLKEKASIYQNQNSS
UniProt Q01658: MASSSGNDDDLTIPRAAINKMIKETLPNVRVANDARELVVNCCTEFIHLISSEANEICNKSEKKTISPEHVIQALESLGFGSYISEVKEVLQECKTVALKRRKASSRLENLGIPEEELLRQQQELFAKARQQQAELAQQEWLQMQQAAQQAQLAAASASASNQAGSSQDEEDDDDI
UniProt O75190: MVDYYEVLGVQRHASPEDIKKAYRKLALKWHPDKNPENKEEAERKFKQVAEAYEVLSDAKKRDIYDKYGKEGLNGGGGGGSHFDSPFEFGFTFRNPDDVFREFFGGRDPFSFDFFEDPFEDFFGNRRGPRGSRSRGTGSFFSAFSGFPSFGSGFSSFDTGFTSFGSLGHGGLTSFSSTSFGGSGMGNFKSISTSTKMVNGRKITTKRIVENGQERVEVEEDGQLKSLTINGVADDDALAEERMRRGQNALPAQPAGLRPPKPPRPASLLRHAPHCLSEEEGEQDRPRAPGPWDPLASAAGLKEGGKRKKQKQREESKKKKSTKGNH
UniProt Q9BZ29: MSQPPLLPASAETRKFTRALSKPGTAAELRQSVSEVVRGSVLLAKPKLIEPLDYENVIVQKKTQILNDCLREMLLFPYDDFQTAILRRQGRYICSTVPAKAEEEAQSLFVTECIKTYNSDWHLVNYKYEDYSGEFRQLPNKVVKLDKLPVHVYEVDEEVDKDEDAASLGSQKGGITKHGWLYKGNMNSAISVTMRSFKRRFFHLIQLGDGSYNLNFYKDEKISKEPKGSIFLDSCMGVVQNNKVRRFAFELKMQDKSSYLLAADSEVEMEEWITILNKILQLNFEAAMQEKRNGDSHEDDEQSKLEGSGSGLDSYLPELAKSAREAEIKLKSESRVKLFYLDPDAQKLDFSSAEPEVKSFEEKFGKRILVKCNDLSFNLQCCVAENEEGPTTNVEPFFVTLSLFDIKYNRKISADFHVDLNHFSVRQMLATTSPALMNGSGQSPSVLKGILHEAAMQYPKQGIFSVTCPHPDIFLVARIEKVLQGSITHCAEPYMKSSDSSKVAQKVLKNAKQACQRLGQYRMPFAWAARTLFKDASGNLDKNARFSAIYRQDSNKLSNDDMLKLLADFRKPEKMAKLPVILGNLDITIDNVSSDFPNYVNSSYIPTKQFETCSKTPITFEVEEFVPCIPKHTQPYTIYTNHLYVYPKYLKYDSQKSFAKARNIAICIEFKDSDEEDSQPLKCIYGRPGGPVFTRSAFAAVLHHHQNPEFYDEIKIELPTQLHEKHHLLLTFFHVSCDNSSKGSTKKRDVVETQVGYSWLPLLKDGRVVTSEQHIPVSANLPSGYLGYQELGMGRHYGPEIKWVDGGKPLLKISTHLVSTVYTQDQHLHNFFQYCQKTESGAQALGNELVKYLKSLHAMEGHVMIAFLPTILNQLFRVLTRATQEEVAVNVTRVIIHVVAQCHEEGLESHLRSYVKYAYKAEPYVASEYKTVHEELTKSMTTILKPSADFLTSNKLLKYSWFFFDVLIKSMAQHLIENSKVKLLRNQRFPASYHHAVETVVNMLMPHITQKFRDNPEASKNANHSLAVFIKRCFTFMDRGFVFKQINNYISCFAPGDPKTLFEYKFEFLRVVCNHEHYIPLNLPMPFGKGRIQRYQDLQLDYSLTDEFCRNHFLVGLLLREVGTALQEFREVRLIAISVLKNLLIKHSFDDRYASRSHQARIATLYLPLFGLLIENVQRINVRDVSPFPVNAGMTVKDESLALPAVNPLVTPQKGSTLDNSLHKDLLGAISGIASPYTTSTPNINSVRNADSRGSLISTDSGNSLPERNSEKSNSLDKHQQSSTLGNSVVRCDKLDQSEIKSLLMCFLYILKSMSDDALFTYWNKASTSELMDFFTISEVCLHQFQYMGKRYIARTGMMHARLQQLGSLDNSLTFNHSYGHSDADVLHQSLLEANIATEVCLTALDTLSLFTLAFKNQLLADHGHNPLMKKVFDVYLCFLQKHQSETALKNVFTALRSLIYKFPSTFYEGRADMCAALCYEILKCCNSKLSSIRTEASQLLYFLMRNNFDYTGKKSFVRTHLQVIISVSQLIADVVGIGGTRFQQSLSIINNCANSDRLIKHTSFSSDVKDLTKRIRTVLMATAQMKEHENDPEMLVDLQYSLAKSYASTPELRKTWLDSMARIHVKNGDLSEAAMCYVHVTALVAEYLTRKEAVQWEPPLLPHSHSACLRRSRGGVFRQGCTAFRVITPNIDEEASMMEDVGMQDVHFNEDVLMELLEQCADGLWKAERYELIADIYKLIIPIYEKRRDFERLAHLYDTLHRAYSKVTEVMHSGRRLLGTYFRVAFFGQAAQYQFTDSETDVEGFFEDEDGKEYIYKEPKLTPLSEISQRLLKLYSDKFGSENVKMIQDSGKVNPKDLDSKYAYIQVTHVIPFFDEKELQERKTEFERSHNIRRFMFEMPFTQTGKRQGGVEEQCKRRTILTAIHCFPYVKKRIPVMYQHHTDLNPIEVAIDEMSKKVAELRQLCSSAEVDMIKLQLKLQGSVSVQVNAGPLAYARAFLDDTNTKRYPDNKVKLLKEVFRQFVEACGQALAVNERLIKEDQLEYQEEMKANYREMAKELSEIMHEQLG
UniProt O00115: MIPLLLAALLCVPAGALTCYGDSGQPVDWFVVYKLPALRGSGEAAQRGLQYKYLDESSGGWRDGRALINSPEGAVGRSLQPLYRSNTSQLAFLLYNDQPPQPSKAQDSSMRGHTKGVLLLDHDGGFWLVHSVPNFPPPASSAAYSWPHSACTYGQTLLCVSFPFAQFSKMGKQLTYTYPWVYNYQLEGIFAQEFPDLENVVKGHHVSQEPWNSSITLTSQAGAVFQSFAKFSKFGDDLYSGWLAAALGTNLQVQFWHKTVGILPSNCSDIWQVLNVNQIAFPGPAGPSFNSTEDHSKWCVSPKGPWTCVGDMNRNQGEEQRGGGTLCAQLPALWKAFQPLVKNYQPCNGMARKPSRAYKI
UniProt P51452: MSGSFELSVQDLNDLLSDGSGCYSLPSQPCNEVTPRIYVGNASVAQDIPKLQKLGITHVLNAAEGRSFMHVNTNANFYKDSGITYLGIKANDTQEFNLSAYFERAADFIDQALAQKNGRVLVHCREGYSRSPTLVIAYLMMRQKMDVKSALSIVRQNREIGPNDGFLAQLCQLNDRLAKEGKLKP
UniProt Q9NVM6: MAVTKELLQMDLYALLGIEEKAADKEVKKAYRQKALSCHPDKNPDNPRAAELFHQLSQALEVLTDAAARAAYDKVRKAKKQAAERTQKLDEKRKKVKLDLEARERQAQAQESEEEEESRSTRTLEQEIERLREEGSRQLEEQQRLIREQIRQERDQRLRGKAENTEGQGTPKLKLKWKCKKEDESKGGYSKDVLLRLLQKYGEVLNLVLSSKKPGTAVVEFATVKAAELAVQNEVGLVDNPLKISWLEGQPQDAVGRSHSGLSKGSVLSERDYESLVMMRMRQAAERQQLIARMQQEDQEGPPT
UniProt O00559: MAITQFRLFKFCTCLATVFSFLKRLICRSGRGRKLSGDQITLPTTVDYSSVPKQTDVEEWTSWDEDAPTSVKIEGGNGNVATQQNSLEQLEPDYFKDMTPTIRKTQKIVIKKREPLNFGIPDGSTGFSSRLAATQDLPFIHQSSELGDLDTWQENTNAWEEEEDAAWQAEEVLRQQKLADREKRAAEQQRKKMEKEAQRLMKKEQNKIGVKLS

Compound: CC[C@H](C)N1C=C(C2=C(C=C(C=C21)C3=CN=C(C=C3)N4CCNCC4)C(=O)NCC5=C(C=C(NC5=O)C)C)C
Assay: log2 fold change, soluble protein after heating vs DMSO (PISA); higher = thermal stabilisation; K562 cells, 10 uM, 30 min; active = over 0.2 and 3.5 SD of the protein, either way, in both replicates (recomputed)
How it was run: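 K562 cells at 2×10^6 cells/mL were treated with 10 μM compound for 30 min. Aliquots were heated for 3 min across 48°C-58°C, pooled, and extracted in PBS with 0.5% NP-40 at 4°C; soluble protein was the supernatant after 21,000xg for 90 min. Soluble protein was quantified by TMTpro 16plex LC-MS/MS with channel sums equalised, and reported as log2 fold change in thermal stability against DMSO controls, with values from duplicates.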

log2 fold change, inactive:
EDEM1 (UniProt Q92611) -0.014
EBP (UniProt Q15125) -0.065
DYNLL1 (UniProt P63167) 0.087
DPH6 (UniProt Q7L8W6) 0.069
ECSIT (UniProt Q9BQ95) 0.008
DNAJC9 (UniProt Q8WXX5) 0.055
DNAJC2 (UniProt Q99543) 0.138
ECI1 (UniProt P42126) -0.042
DNM1L isoform 6 (UniProt O00429) 0
DPF2 (UniProt Q92785) -0.028
DNAJB4 (UniProt Q9UDY4) 0.07
ECHDC1 (UniProt Q9NTX5) -0.031
DTD1 (UniProt Q8TEA8) -0.018
DR1 (UniProt Q01658) -0.02
DPY30 (UniProt Q9C005) 0.022
DNAJB6 (UniProt O75190) 0.023
DOCK9 isoform 4 (UniProt Q9BZ29) 0.027
DPP7 (UniProt Q9UHL4) -0.004
DNASE2 (UniProt O00115) -0.027
DUSP3 (UniProt P51452) -0.063
DSG2 (UniProt Q14126) 0.003
DNAJC17 (UniProt Q9NVM6) 0.001
DPH2 (UniProt Q9BQC3) 0.038
EBAG9 isoform 2 (UniProt O00559) -0.096

Random excerpt: 2 entries already listed
log2 fold change, inactive:
ECI1 (UniProt P42126) -0.042
ECHDC1 (UniProt Q9NTX5) -0.031
